Laboratory results as given in patent US20090099259A1, “Method for regulating gene expression” (priority 2006, published 2009).
For at least one compound, name, drawing or mass did not settle the structure.

System: cerebral cortex global messenger RNA
Experiment: Affymetrix HG-U133 Plus 2.0 microarray of cerebral cortex RNA, baboon neonates fed formula until 12 weeks
Format: in vivo

CC/C=C\C/C=C\C/C=C\C/C=C\C/C=C\C/C=C\CCC(=O)O [DHA, docosahexaenoic acid]
IMPG1 expression (higher amounts of DHA in the infant formula): increased the expression
GSR and GSTA3 expression (increased amounts of DHA): reduced the expression
DHCR24 and PRKAG2 expression (increasing DHA): upregulated
PRKAA1, SOAT1 and FDFT1 expression (increasing DHA): downregulated
RIT1, KRAS, RERG and RAPGEF6 expression (increasing DHA): upregulated
VDP, RSAFD1, C1QG and OXA1L expression (increasing DHA): significantly repressed
CD40, ITGB7, IL20RA, CD14, DOK3, MR1, BZRAP1, RARA, CD3D, IL1R1, MCP and HOMER3 transcripts (increasing levels of DHA): decreased expression
FCGR2B, IL31RA, MRC2, SCUBE3, CR2, NCR2, CRLF2, SLAMF1, EGFR and KIR3DL2 expression (increasing levels of DHA): increased expression
Annexin A3 (ANXA3) levels (with increasing DHA): Decreased levels
CARD6, TIA1, BNIP1, FAF1, GULP1, CASP9 and FLJ13491 expression (with increasing DHA): upregulated
COL4A2 and COL9A2 expression (with increasing DHA): decreased expression
COL4A6 and COL9A3 expression (with increasing DHA): increased expression
HLA-DPB1, MX2 and IGHG1 expression (with increasing DHA): overexpressed
HNF4A, CLPS and ALDH3B2 expression (with increasing DHA): decreased expression
Hepatic nuclear factor-4α (HNF4A) expression (with increasing DHA): decreased expression
MTMR2, PPP1R7, PTPRN2 and HDHD3 expression (with increasing DHA): significantly downregulated
NOL5A, RBM19, NCBP2 and PHF5A expression (with increasing DHA): decreased expression
PLUNC expression (with increasing DHA): underexpressed
SFRS21P, LOC81691, EXOSC2, SFPQ, SNRPN and SFRS5 expression (with increasing DHA): increased expression
STK3, STK6, HINT3, TLK1, DRF1, GUCY2C and NEK1 transcripts (with increasing DHA): significantly upregulated
VDAC3, KCNK3 and KCNH7 expression (with increasing DHA): overexpressed
MYO1A and MYO5A expression (with increasing amounts of DHA): upregulated
MYO1E expression (with increasing amounts of DHA): decreased expression
